PubChem BioAssay AID1508588, Peter MacCallum Cancer Centre – 2020

Test: 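Genome-wide search for knock-downs that heighten vemurafenib action in melanoma cells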 (primary screen)
System: human WM266.4 melanoma cells (BRAF V600 mutant)
Reagent: siRNA pool against human genes, 40 nM
Timing: 96 h from transfection to read-out
Treatment: vemurafenib 300 nM (about IC25), added 48 h after transfection, for 48 h; comparison arm got DMSO vehicle only
Measured: 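Cell gain (DAPI nuclei at end minus before drug, mean of two replicates) and medium lactate by absorbance per cell, both as ratio to non-targeting siRNA, also grouped into fold-change classes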
Scale: cell gain with vemurafenib: higher = more cell gain than with non-targeting siRNA; lactate per cell with vemurafenib: higher = more lactate made per cell
Rule for the call: 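Enhancement is called by pairing each knock-down's vehicle-arm and drug-arm fold-change classes for viability or glycolysis; which class combinations qualify is not given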
Calls: active = enhances vemurafenib effect; inactive = no enhancement seen
The whole screen tested about 18,000 reagents; below is an unselected part. 790 of all reagents (4.4%) were called active. 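Calls rest on a combination of fold-change classes in drug and vehicle arms, not all shown here.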 Unmarked entries are inactive.

After knock-down of CARD10, the screen gave cell gain with vemurafenib 0.54; lactate per cell with vemurafenib 0.6.
Against ASH2L, the entry reads cell gain with vemurafenib 0.36; lactate per cell with vemurafenib 0.48.
Depletion of AUTS2 gave: cell gain with vemurafenib 0.43; lactate per cell with vemurafenib 1.25.
After knock-down of TSPAN15, the screen gave cell gain with vemurafenib 0.85; lactate per cell with vemurafenib 0.85.
ACYP2 scored cell gain with vemurafenib 0.75; lactate per cell with vemurafenib 1.03.
For TIPIN, the entry reads cell gain with vemurafenib 0.18; lactate per cell with vemurafenib 1.38.
Silencing of KIF3B came out at: cell gain with vemurafenib 0.7; lactate per cell with vemurafenib 0.88.
Depletion of MST1R resulted in: cell gain with vemurafenib 0.51; lactate per cell with vemurafenib 0.7.
ANKHD1-EIF4EBP3 gave cell gain with vemurafenib 0.14 (active); lactate per cell with vemurafenib 0.82.
Against TRIM64 the deposit lists cell gain with vemurafenib 0.34; lactate per cell with vemurafenib 1.88.
With knock-down of CTDP1 the results were cell gain with vemurafenib 0.66; lactate per cell with vemurafenib 0.74.
Silencing of REEP1 came out at: cell gain with vemurafenib 0.56; lactate per cell with vemurafenib 0.36.
ZBTB41 gave cell gain with vemurafenib 1.03; lactate per cell with vemurafenib 0.74.
Silencing of EOLA2 gave: cell gain with vemurafenib 0.35; lactate per cell with vemurafenib 0.62.
Against JOSD2 the deposit lists cell gain with vemurafenib 0.56; lactate per cell with vemurafenib 1.02.
Depletion of C1orf220 resulted in: cell gain with vemurafenib 0.27; lactate per cell with vemurafenib 1.56.
After knock-down of RITA1 the results were cell gain with vemurafenib 0.84; lactate per cell with vemurafenib 1.17.
Depletion of ARMC8 resulted in: cell gain with vemurafenib 0.5; lactate per cell with vemurafenib 0.93.
Against IRF2BPL, the entry reads cell gain with vemurafenib 0.77; lactate per cell with vemurafenib 0.8.
Knock-down of OR1L1 resulted in: cell gain with vemurafenib 0.6; lactate per cell with vemurafenib 0.38.
Silencing of RUFY3 resulted in: cell gain with vemurafenib 0.64; lactate per cell with vemurafenib 0.55.
After knock-down of PTPRN2 the results were cell gain with vemurafenib 0.58; lactate per cell with vemurafenib 0.84.
After knock-down of DNAH7, the screen gave cell gain with vemurafenib 0.73; lactate per cell with vemurafenib 0.72.
PI4KAP2 scored cell gain with vemurafenib 0.34; lactate per cell with vemurafenib 1.58.
With knock-down of ZMAT3, the screen gave cell gain with vemurafenib 0.65; lactate per cell with vemurafenib 1.09.
Knock-down of TIMM17A gave: cell gain with vemurafenib 0.53; lactate per cell with vemurafenib 0.88.
Against FSTL5 the deposit lists cell gain with vemurafenib 0.85; lactate per cell with vemurafenib 0.6.

Laid out differently: entries from further up
C1orf220
- cell gain with vemurafenib: 0.27
- lactate per cell with vemurafenib: 1.56

RITA1
- cell gain with vemurafenib: 0.84
- lactate per cell with vemurafenib: 1.17

ARMC8
- cell gain with vemurafenib: 0.5
- lactate per cell with vemurafenib: 0.93
